In US20250074896A1, “ARYLTETRAHYDROPYRIDAZINE DERIVATIVE OR SALT THEREOF AND INSECTICIDAL AGENT CONTAINING THE COMPOUND AND METHOD FOR USING SAME” (NIHON NOHYAKU CO., LTD., priority 2021, published 2025):
Some results were stated once for a whole list of compounds, not compound by compound.

What was measured:
Type in all cases: in vivo
[1] = tested on: Western Flower Thrips (Frankliniella occidentalis); experiment: Insecticidal test on western flower thrips (kidney bean leaf pieces, hatched larvae); conditions: 4 days after the treatment
[2] = tested on: Small Brown Planthopper (Laodelphax striatellus); experiment: Insecticidal test on small brown planthopper (dipped rice seedlings, 3rd-instar larvae); conditions: rice seedlings dipped 30 seconds, 8 days after inoculation
[3] = tested on: Diamondback moth (Plutella xylostella); experiment: Insecticidal test on diamondback moth (dip treatment of Chinese cabbage seedlings with laid eggs); conditions: dip about 30 seconds, 6 days after treatment, 25° C.

COCCOC(=O)N1C(=O)C(C(=S)Nc2cccc(F)c2)=C(O)CN1c1ccc(C#N)nc1 [4-67]
A (the mortality rate is 100%): insecticidal efficacy (corrected mortality rate) against western flower thrips ([1]; 50 ppm) | insecticidal efficacy (corrected mortality rate) against western flower thrips ([1]; 500 ppm) | insecticidal efficacy (corrected mortality rate) against small brown planthopper ([2]; 50 ppm) | insecticidal efficacy (corrected mortality rate) against small brown planthopper ([2]; 500 ppm) | insecticidal efficacy (corrected mortality rate) against diamondback moth ([3]; 500 ppm)

N#Cc1ccc(N2CC(O)=C(C(=O)Nc3ccc(F)c(F)c3)C(=O)N2)cc1Cl [1-166]
A (the mortality rate is 100%): insecticidal efficacy (corrected mortality rate) against western flower thrips ([1]; 50 ppm) | insecticidal efficacy (corrected mortality rate) against western flower thrips ([1]; 500 ppm) | insecticidal efficacy (corrected mortality rate) against small brown planthopper ([2]; 50 ppm) | insecticidal efficacy (corrected mortality rate) against small brown planthopper ([2]; 500 ppm) | insecticidal efficacy (corrected mortality rate) against diamondback moth ([3]; 50 ppm) | insecticidal efficacy (corrected mortality rate) against diamondback moth ([3]; 500 ppm)

N#Cc1ccc(N2CC(O)=C(C(=O)Nc3ccc(F)cc3)C(=O)N2C(=O)OCc2ccccc2)cn1 [3-359]
A (the mortality rate is 100%): insecticidal efficacy (corrected mortality rate) against western flower thrips ([1]; 50 ppm) | insecticidal efficacy (corrected mortality rate) against western flower thrips ([1]; 500 ppm) | insecticidal efficacy (corrected mortality rate) against small brown planthopper ([2]; 50 ppm) | insecticidal efficacy (corrected mortality rate) against small brown planthopper ([2]; 500 ppm) | insecticidal efficacy (corrected mortality rate) against diamondback moth ([3]; 50 ppm) | insecticidal efficacy (corrected mortality rate) against diamondback moth ([3]; 500 ppm)

COC(=O)N1C(=O)C(C(=O)Nc2ccc(F)c(F)c2)=C(O)CN1c1cncc(OC)c1C#N [3-505]
A (the mortality rate is 100%): insecticidal efficacy (corrected mortality rate) against western flower thrips ([1]; 50 ppm) | insecticidal efficacy (corrected mortality rate) against western flower thrips ([1]; 500 ppm) | insecticidal efficacy (corrected mortality rate) against small brown planthopper ([2]; 50 ppm) | insecticidal efficacy (corrected mortality rate) against small brown planthopper ([2]; 500 ppm) | insecticidal efficacy (corrected mortality rate) against diamondback moth ([3]; 500 ppm)

N#Cc1ncc(N2CC(O)=C(C(=O)Nc3cccc(F)c3)C(=O)N2)cc1Cl [1-193]
A (the mortality rate is 100%): insecticidal efficacy (corrected mortality rate) against western flower thrips ([1]; 50 ppm) | insecticidal efficacy (corrected mortality rate) against western flower thrips ([1]; 500 ppm) | insecticidal efficacy (corrected mortality rate) against small brown planthopper ([2]; 500 ppm) | insecticidal efficacy (corrected mortality rate) against diamondback moth ([3]; 50 ppm) | insecticidal efficacy (corrected mortality rate) against diamondback moth ([3]; 500 ppm)

N#Cc1ccc(N2CC(O)=C(C(=O)Nc3ccccc3F)C(=O)N2)cn1 [1-204]
A (the mortality rate is 100%): insecticidal efficacy (corrected mortality rate) against western flower thrips ([1]; 50 ppm) | insecticidal efficacy (corrected mortality rate) against western flower thrips ([1]; 500 ppm) | insecticidal efficacy (corrected mortality rate) against small brown planthopper ([2]; 50 ppm) | insecticidal efficacy (corrected mortality rate) against small brown planthopper ([2]; 500 ppm) | insecticidal efficacy (corrected mortality rate) against diamondback moth ([3]; 500 ppm)

CCNC(=O)N1C(=O)C(C(=O)Nc2ccc(F)cc2)=C(O)CN1c1ccc(C#N)c(F)c1 [3-41]
A (the mortality rate is 100%): insecticidal efficacy (corrected mortality rate) against western flower thrips ([1]; 50 ppm) | insecticidal efficacy (corrected mortality rate) against western flower thrips ([1]; 500 ppm) | insecticidal efficacy (corrected mortality rate) against small brown planthopper ([2]; 50 ppm) | insecticidal efficacy (corrected mortality rate) against small brown planthopper ([2]; 500 ppm) | insecticidal efficacy (corrected mortality rate) against diamondback moth ([3]; 50 ppm) | insecticidal efficacy (corrected mortality rate) against diamondback moth ([3]; 500 ppm)

N#Cc1ncc(N2CC(O)=C(C(=O)Nc3cc(F)cc(F)c3)C(=O)N2)cc1Cl [1-286]
A (the mortality rate is 100%): insecticidal efficacy (corrected mortality rate) against western flower thrips ([1]; 500 ppm) | insecticidal efficacy (corrected mortality rate) against small brown planthopper ([2]; 50 ppm) | insecticidal efficacy (corrected mortality rate) against small brown planthopper ([2]; 500 ppm) | insecticidal efficacy (corrected mortality rate) against diamondback moth ([3]; 50 ppm) | insecticidal efficacy (corrected mortality rate) against diamondback moth ([3]; 500 ppm)

COC(=O)N1C(=O)C(C(=O)Nc2ccc(F)cc2)=C(O)CN1c1ccc(C#N)s1 [3-198]
A (the mortality rate is 100%): insecticidal efficacy (corrected mortality rate) against western flower thrips ([1]; 50 ppm) | insecticidal efficacy (corrected mortality rate) against western flower thrips ([1]; 500 ppm) | insecticidal efficacy (corrected mortality rate) against small brown planthopper ([2]; 50 ppm) | insecticidal efficacy (corrected mortality rate) against small brown planthopper ([2]; 500 ppm) | insecticidal efficacy (corrected mortality rate) against diamondback moth ([3]; 50 ppm) | insecticidal efficacy (corrected mortality rate) against diamondback moth ([3]; 500 ppm)

COC(=O)N1C(=O)C(C(=O)Nc2ccc(F)cc2F)=C(O)CN1c1ccc(C#N)cc1 [3-442]
A (the mortality rate is 100%): insecticidal efficacy (corrected mortality rate) against western flower thrips ([1]; 50 ppm) | insecticidal efficacy (corrected mortality rate) against western flower thrips ([1]; 500 ppm) | insecticidal efficacy (corrected mortality rate) against small brown planthopper ([2]; 50 ppm) | insecticidal efficacy (corrected mortality rate) against small brown planthopper ([2]; 500 ppm) | insecticidal efficacy (corrected mortality rate) against diamondback moth ([3]; 50 ppm) | insecticidal efficacy (corrected mortality rate) against diamondback moth ([3]; 500 ppm)

COC(=O)N1C(=O)C(C(=O)Nc2ccnc(OC)c2)=C(O)CN1c1cnc(C#N)c(Cl)c1 [3-479]
A (the mortality rate is 100%): insecticidal efficacy (corrected mortality rate) against western flower thrips ([1]; 500 ppm) | insecticidal efficacy (corrected mortality rate) against small brown planthopper ([2]; 50 ppm) | insecticidal efficacy (corrected mortality rate) against small brown planthopper ([2]; 500 ppm) | insecticidal efficacy (corrected mortality rate) against diamondback moth ([3]; 500 ppm)

COc1ccc(NC(=O)C2=C(O)CN(c3ccc(C#N)cc3)NC2=O)c(OC)c1 [1-243]
A (the mortality rate is 100%): insecticidal efficacy (corrected mortality rate) against western flower thrips ([1]; 500 ppm) | insecticidal efficacy (corrected mortality rate) against small brown planthopper ([2]; 500 ppm) | insecticidal efficacy (corrected mortality rate) against diamondback moth ([3]; 500 ppm)

COC(=O)N1C(=O)C(C(=O)Nc2ccc(F)cc2)=C([O-])CN1c1ccc(C#N)nc1.[K+] [3-676]
A (the mortality rate is 100%): insecticidal efficacy (corrected mortality rate) against western flower thrips ([1]; 50 ppm) | insecticidal efficacy (corrected mortality rate) against western flower thrips ([1]; 500 ppm) | insecticidal efficacy (corrected mortality rate) against small brown planthopper ([2]; 50 ppm) | insecticidal efficacy (corrected mortality rate) against small brown planthopper ([2]; 500 ppm) | insecticidal efficacy (corrected mortality rate) against diamondback moth ([3]; 500 ppm)

CC(C)COC(=O)N1C(=O)C(C(=O)Nc2ccc(F)cc2)=C(O)CN1c1ccc(C#N)nc1 [3-282]
A (the mortality rate is 100%): insecticidal efficacy (corrected mortality rate) against western flower thrips ([1]; 50 ppm) | insecticidal efficacy (corrected mortality rate) against western flower thrips ([1]; 500 ppm) | insecticidal efficacy (corrected mortality rate) against small brown planthopper ([2]; 500 ppm) | insecticidal efficacy (corrected mortality rate) against diamondback moth ([3]; 50 ppm) | insecticidal efficacy (corrected mortality rate) against diamondback moth ([3]; 500 ppm)

N#Cc1ccc(N2CC(O)=C(C(=O)Nc3ccc(F)nc3)C(=O)N2)nc1 [1-292]
A (the mortality rate is 100%): insecticidal efficacy (corrected mortality rate) against western flower thrips ([1]; 50 ppm) | insecticidal efficacy (corrected mortality rate) against western flower thrips ([1]; 500 ppm) | insecticidal efficacy (corrected mortality rate) against small brown planthopper ([2]; 50 ppm) | insecticidal efficacy (corrected mortality rate) against small brown planthopper ([2]; 500 ppm) | insecticidal efficacy (corrected mortality rate) against diamondback moth ([3]; 50 ppm) | insecticidal efficacy (corrected mortality rate) against diamondback moth ([3]; 500 ppm)

C#CCOC(=O)N1C(=O)C(C(=O)Nc2ccc(F)cc2)=C(O)CN1c1ccc(C(F)(F)F)nc1 [3-317]
A (the mortality rate is 100%): insecticidal efficacy (corrected mortality rate) against western flower thrips ([1]; 50 ppm) | insecticidal efficacy (corrected mortality rate) against western flower thrips ([1]; 500 ppm) | insecticidal efficacy (corrected mortality rate) against small brown planthopper ([2]; 50 ppm) | insecticidal efficacy (corrected mortality rate) against small brown planthopper ([2]; 500 ppm) | insecticidal efficacy (corrected mortality rate) against diamondback moth ([3]; 50 ppm) | insecticidal efficacy (corrected mortality rate) against diamondback moth ([3]; 500 ppm)

COC(=O)N1C(=O)C(C(=O)Nc2ccc(F)cc2)=C(O)CN1c1cnc(Br)cn1 [3-111]
A (the mortality rate is 100%): insecticidal efficacy (corrected mortality rate) against western flower thrips ([1]; 50 ppm) | insecticidal efficacy (corrected mortality rate) against western flower thrips ([1]; 500 ppm) | insecticidal efficacy (corrected mortality rate) against small brown planthopper ([2]; 50 ppm) | insecticidal efficacy (corrected mortality rate) against small brown planthopper ([2]; 500 ppm) | insecticidal efficacy (corrected mortality rate) against diamondback moth ([3]; 50 ppm) | insecticidal efficacy (corrected mortality rate) against diamondback moth ([3]; 500 ppm)

COCCOC(=O)N1C(=O)C(C(=O)Nc2ccc(F)cc2)=C(S)CN1c1ccc(C(F)(F)F)nc1 [5-9]
A (the mortality rate is 100%): insecticidal efficacy (corrected mortality rate) against western flower thrips ([1]; 50 ppm) | insecticidal efficacy (corrected mortality rate) against western flower thrips ([1]; 500 ppm) | insecticidal efficacy (corrected mortality rate) against small brown planthopper ([2]; 50 ppm) | insecticidal efficacy (corrected mortality rate) against small brown planthopper ([2]; 500 ppm) | insecticidal efficacy (corrected mortality rate) against diamondback moth ([3]; 50 ppm) | insecticidal efficacy (corrected mortality rate) against diamondback moth ([3]; 500 ppm)

COc1cc(N2CC(O)=C(C(=O)Nc3ccc(F)cc3F)C(=O)N2)cnc1C#N [1-276]
A (the mortality rate is 100%): insecticidal efficacy (corrected mortality rate) against western flower thrips ([1]; 50 ppm) | insecticidal efficacy (corrected mortality rate) against western flower thrips ([1]; 500 ppm) | insecticidal efficacy (corrected mortality rate) against small brown planthopper ([2]; 50 ppm) | insecticidal efficacy (corrected mortality rate) against small brown planthopper ([2]; 500 ppm) | insecticidal efficacy (corrected mortality rate) against diamondback moth ([3]; 50 ppm) | insecticidal efficacy (corrected mortality rate) against diamondback moth ([3]; 500 ppm)
